Results on 2 sequences are retold here after article PMC4398547.

Chains of the proteins cited; added tags and fusions are not shown. Lines headed by an entry give the natural chain unless they say otherwise; changes in a name come on top.
UniProt P01871: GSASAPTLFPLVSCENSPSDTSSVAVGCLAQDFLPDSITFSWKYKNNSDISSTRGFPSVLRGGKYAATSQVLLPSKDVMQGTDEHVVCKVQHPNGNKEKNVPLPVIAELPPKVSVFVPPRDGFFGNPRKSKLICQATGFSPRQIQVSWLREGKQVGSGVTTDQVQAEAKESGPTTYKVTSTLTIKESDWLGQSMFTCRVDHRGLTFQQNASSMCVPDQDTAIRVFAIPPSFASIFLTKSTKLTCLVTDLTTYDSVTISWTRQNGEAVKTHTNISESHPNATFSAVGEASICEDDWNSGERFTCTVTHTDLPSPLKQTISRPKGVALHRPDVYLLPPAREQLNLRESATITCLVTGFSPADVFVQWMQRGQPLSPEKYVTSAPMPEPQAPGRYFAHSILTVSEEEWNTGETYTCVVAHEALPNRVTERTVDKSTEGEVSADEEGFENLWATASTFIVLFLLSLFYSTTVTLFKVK

Data set [1] has as its target membrane-bound immunoglobulin heavy mu chain (mIgM) on Ramos B cells (Homo sapiens) (UniProt P01871). The data set is described as follows: flow cytometry on B cells. The settings on record: signal resembles baseline noise; PBS with 6.05 mM Mg2+, 1.2 mM Ca2+, 4.5 g/L glucose, 0.2% NaN3; on ice; 200 nM probe, 5 x 10^5 cells, 15 min; pH not stated; protein on the cell surface; label: 5' FITC; single-stranded DNA.

Data set [2] has the same target. The data set can be described thus: flow cytometry on Ramos cells. The settings on record: 200 nM probe, 15 min on ice, PBS with 6.05 mM Mg2+, 1.2 mM Ca2+, 4.5 g/L glucose, 0.2% NaN3, 5 x 10^5 cells, pH not stated, protein on the cell surface, label: 5' Alexa Fluor 488, 3' BHQ-1, folded or branched DNA. In general terms: In flow cytometry, cells or beads pass a laser one at a time.

For at least one entry, the source does not settle the construct or the ends of the probe. Results from cells or extracts need not show a direct contact. For some assays here: A negative result means that nothing was seen under these conditions. At least one verdict was read from the data and is not stated in words by the source.

As for “TAGCCAAGGTAACCAGTACAAGGTGCTAAACGTAATGGCTTCGGCTTAC [Random aptamer (LD20t)]”, the binding result in data set [1] is recorded as “no binding”.

With “AGGAGGAGATTTTTTTTTTAGGAGGATAGTTAGGTGGCTGTTGAGGGTCTCCTCCTA [Q-TD05]”, the binding result in data set [2] is “binds”.
